The target in test [1] is sirtuin-1 (SIRT1), endogenous (human (endogenous in RBE)) (UniProt Q96EB6). The test is described as follows: co-IP; endogenous proteins; lysates of RBE-shControl and RBE-shUSP22 cells; antibody to USP22 or SIRT1 (IgG as control) immobilised on AminoLink Plus resin (Pierce co-IP kit), incubated with lysate overnight; immunoblot. For orientation: In western blotting, separated proteins are transferred to a membrane and probed.

Protein sequences, listed by entry. Tags and fused reporters are not part of them.
UniProt Q96EB6: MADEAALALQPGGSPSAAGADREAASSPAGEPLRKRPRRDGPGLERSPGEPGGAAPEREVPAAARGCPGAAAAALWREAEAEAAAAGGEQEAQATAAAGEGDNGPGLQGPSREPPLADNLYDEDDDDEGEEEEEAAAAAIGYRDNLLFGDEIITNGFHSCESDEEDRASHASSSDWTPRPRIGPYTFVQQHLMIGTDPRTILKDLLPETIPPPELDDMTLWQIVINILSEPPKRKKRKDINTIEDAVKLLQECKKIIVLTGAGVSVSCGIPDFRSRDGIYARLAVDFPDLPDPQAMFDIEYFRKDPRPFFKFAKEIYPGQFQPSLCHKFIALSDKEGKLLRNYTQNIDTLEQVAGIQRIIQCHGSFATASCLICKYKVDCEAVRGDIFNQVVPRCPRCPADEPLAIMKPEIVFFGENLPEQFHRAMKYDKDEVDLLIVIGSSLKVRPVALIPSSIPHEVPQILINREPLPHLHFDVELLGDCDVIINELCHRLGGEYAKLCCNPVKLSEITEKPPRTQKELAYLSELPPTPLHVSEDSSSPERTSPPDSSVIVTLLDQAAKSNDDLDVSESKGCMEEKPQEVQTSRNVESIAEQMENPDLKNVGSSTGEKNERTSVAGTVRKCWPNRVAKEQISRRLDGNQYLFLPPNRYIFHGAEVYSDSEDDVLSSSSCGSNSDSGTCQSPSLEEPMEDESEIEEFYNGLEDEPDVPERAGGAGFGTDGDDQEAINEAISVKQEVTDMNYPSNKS

In test [2] the target is tagged SIRT1 expressed in 293T cells (UniProt Q96EB6). The test can be described thus: co-IP; 293T cells transfected with tagged USP22 and tagged SIRT1 alone or together, lysed after 48 h; immunoprecipitation and immunoblot with antibodies to Flag and Myc (IgG as control).

Results are given in words; binding and its absence hold for the method and conditions named. In cells and extracts the contact can be indirect. Some entries that bind do so weakly or less than the wild type. For some assays here: Sequences can lack the tags named with a protein.

B1: ubiquitin-specific protease 22 (USP22), endogenous (protein, UniProt Q9UPT9 1-525)
chain: MVSRPEPEGEAMDAELAVAPPGCSHLGSFKVDNWKQNLRAIYQCFVWSGTAEARKRKAKSCICHVCGVHLNRLHSCLYCVFFGCFTKKHIHEHAKAKRHNLAIDLMYGGIYCFLCQDYIYDKDMEIIAKEEQRKAWKMQGVGEKFSTWEPTKRELELLKHNPKRRKITSNCTIGLRGLINLGNTCFMNCIVQALTHTPLLRDFFLSDRHRCEMQSPSSCLVCEMSSLFQEFYSGHRSPHIPYKLLHLVWTHARHLAGYEQQDAHEFLIAALDVLHRHCKGDDNGKKANNPNHCNCIIDQIFTGGLQSDVTCQVCHGVSTTIDPFWDISLDLPGSSTPFWPLSPGSEGNVVNGESHVSGTTTLTDCLRRFTRPEHLGSSAKIKCSGCHSYQESTKQLTMKKLPIVACFHLKRFEHSAKLRRKITTYVSFPLELDMTPFMASSKESRMNGQYQQPTDSLNNDNKYSLFAVVNHQGTLESGHYTSFIRQHKDQWFKCDDAIITKASIKDVLDSEGYLLFYHKQFLEYE
For B1, in test [1], the binding entry is “binds”.

B2: tagged USP22 expressed in 293T cells (protein, UniProt Q9UPT9 1-525)
chain: B1 chain
B2: in test [2], the binding entry is recorded as “binds”.

For the origin of these results see publication PMC8257691.
